Results from the supplement of paper PMC8728848.
Some of the results follow.

What was measured:
Experiment in all cases: glycan array binding signal (z-score within array); higher = stronger binding
Conditions in all cases: glycan notation: IUPAC condensed, linker removed
[1] = molecular target: Neu5Ac(a2-8)Neu5Ac
In short: (§1)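 Arrays were curated from the Consortium for Functional Glycomics database, 3228 in total, and kept only where the protein sequence was available. Binding is expressed as a within-array Z-score. This score was averaged across arrays of the same protein sequence at different concentrations or buffers and across linkers, and negative values can be read as non-binding.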

[2] = molecular target: Neu5Ac(a2-8)Neu5Ac(a2-3)Gal(b1-3)GalNAc(b1-4)[Neu5Ac(a2-3)]Gal(b1-4)Glc
In short: as §1

[3] = molecular target: Neu5Ac(a2-8)Neu5Ac(a2-3)Gal(b1-3)GalNAc(b1-4)[Neu5Ac(a2-8)Neu5Ac(a2-3)]Gal(b1-4)Glc
In short: as §1

[4] = molecular target: Neu5Ac(a2-8)Neu5Ac(a2-3)Gal(b1-4)Glc
In short: as §1

[5] = molecular target: Neu5Ac(a2-8)Neu5Ac(a2-3)Gal(b1-4)GlcNAc
In short: as §1

[6] = molecular target: Neu5Ac(a2-8)Neu5Ac(a2-3)[Gal(b1-3)GalNAc(b1-4)]Gal(b1-4)Glc
In short: as §1

[7] = molecular target: Neu5Ac(a2-8)Neu5Ac(a2-3)[GalNAc(b1-4)]Gal(b1-4)Glc
In short: as §1

[8] = molecular target: Neu5Ac(a2-8)Neu5Ac(a2-8)Neu5Ac
In short: as §1

[9] = molecular target: Neu5Ac(a2-8)Neu5Ac(a2-8)Neu5Ac(a2-3)Gal(b1-4)Glc
In short: as §1

[10] = molecular target: Neu5Ac(a2-8)Neu5Ac(a2-8)Neu5Ac(a2-3)[Gal(b1-3)GalNAc(b1-4)]Gal(b1-4)Glc
In short: as §1

[11] = molecular target: Neu5Ac(a2-8)Neu5Ac(a2-8)Neu5Ac(a2-3)[GalNAc(b1-4)]Gal(b1-4)Glc
In short: as §1

[12] = molecular target: Neu5Ac(a2-8)Neu5Ac(a2-8)Neu5Ac(a2-8)Neu5Ac(a2-3)[GalNAc(b1-4)]Gal(b1-4)Glc
In short: as §1

[13] = molecular target: Neu5Ac(a2-8)Neu5Gc(a2-3)Gal(b1-4)GlcNAc
In short: as §1

[14] = molecular target: Neu5Ac(b2-6)Gal(b1-4)GlcNAc
In short: as §1

[15] = molecular target: Neu5Ac(b2-6)GalNAc
In short: as §1

[16] = molecular target: Neu5Ac9Ac(a2-3)Gal(b1-3)GlcNAc
In short: as §1

[17] = molecular target: Neu5Ac9Ac(a2-3)Gal(b1-4)GlcNAc
In short: as §1

[18] = molecular target: Neu5Ac9Ac(a2-6)Gal(b1-4)GlcNAc
In short: as §1

[19] = molecular target: Neu5Gc(a2-3)Gal(b1-3)GlcNAc
In short: as §1

[20] = molecular target: Neu5Gc(a2-3)Gal(b1-3)[Fuc(a1-4)]GlcNAc
In short: as §1

[21] = molecular target: Neu5Gc(a2-3)Gal(b1-4)Glc
In short: as §1

[22] = molecular target: Neu5Gc(a2-3)Gal(b1-4)GlcNAc
In short: as §1

[23] = molecular target: Neu5Gc(a2-3)Gal(b1-4)GlcNAc(b1-3)Gal(b1-4)GlcNAc(b1-2)Man(a1-3)[Neu5Gc(a2-3)Gal(b1-4)GlcNAc(b1-3)Gal(b1-4)GlcNAc(b1-2)Man(a1-6)]Man(b1-4)GlcNAc(b1-4)GlcNAc
In short: as §1

[24] = molecular target: Neu5Gc(a2-3)Gal(b1-4)[Fuc(a1-3)]GlcNAc
In short: as §1

[25] = molecular target: Neu5Gc(a2-6)Gal(b1-4)GlcNAc
In short: as §1

[26] = molecular target: Neu5Gc(a2-6)GalNAc
In short: as §1

[27] = molecular target: Neu5Gc(a2-8)Neu5Ac(a2-3)Gal(b1-4)GlcNAc
In short: as §1

[28] = molecular target: Neu5Gc(a2-8)Neu5Gc(a2-3)Gal(b1-4)GlcNAc
In short: as §1

[29] = molecular target: Neu5Gc(a2-8)Neu5Gc(a2-3)Gal(b1-4)GlcNAc(b1-3)Gal(b1-4)GlcNAc
In short: as §1

[30] = molecular target: Neu5Gc(a2-8)Neu5Gc(a2-6)Gal(b1-4)GlcNAc
In short: as §1

[31] = molecular target: Neu5Gc(b2-6)Gal(b1-4)GlcNAc
In short: as §1

B1: PX9937I-bfa-538-26-538 (Bacteroides fragilis) (protein)
chain: DKLDLSPIDYYGSGSYWKTEAQATAYIDGIHKHLRDAAWQHTITFGELRGGRFITGASSDGMGVSNGDIILQNFDETHTGVSKFGDLFGRITNLNLFIARVTDATYLSDEMKNFYLGEVYGLRAFYYFDLYRIYGGVPLRLTADVVEGVIDPNKLYMARSTPKEVMTQIKSDLNKSMEYFGNMNDFDPYKRGKKVYWSKAATECLMGEVYLWTSKVTTGDDVANPADLTIAKTHLESVLNNYNLKMLDDFSQVFNAKNKANDEIIFAIRFLEGEATNSNGTFTYNVGTGSTKNRYQANGEVFGDALDIQNTGNQTYEYNKAVYQNFDDADTRKEATFIASYNKDGKTGELSLYGTHVRKNIGYVNAQGARVYCGDYIFYRLPWVYLTLAEIANMEGDNAAVAKYINLVRKRAYGNAWDETLYAYPETADFTTNELAILHEKDKEFIQEGQRWWDLRRMTLTKGGTPLVFCKEGSLLGDAPILNKSTEAHKLLWPIEKTMLNKDPALEQTPGYK
glycan array binding signal (z-score) [1]: -0.358 | glycan array binding signal (z-score) [2]: 0.12 | glycan array binding signal (z-score) [3]: 0.349 | glycan array binding signal (z-score) [4]: -0.76 | glycan array binding signal (z-score) [5]: -0.938 | glycan array binding signal (z-score) [6]: 0.949 | glycan array binding signal (z-score) [7]: -0.034 | glycan array binding signal (z-score) [8]: -0.092 | glycan array binding signal (z-score) [9]: 0.024 | glycan array binding signal (z-score) [10]: -0.352 | glycan array binding signal (z-score) [11]: 0.094 | glycan array binding signal (z-score) [12]: -0.475 | glycan array binding signal (z-score) [13]: 0.35 | glycan array binding signal (z-score) [14]: -0.137 | glycan array binding signal (z-score) [15]: -0.386 | glycan array binding signal (z-score) [16]: -0.793 | glycan array binding signal (z-score) [17]: -0.717 | glycan array binding signal (z-score) [18]: -0.293 | glycan array binding signal (z-score) [19]: 0.425 | glycan array binding signal (z-score) [20]: -0.037 | glycan array binding signal (z-score) [21]: -0.086 | glycan array binding signal (z-score) [22]: -0.536 | glycan array binding signal (z-score) [23]: -0.051 | glycan array binding signal (z-score) [24]: 0.378 | glycan array binding signal (z-score) [25]: -0.339 | glycan array binding signal (z-score) [26]: -0.122 | glycan array binding signal (z-score) [27]: -0.078 | glycan array binding signal (z-score) [28]: -0.476 | glycan array binding signal (z-score) [29]: -0.944 | glycan array binding signal (z-score) [30]: -0.156 | glycan array binding signal (z-score) [31]: -0.205
